In PubChem BioAssay:
The other results are listed elsewhere or left out. Results with a measured potency or affinity are listed apart. The source made no clear call on entries shown without one.

Test: Polyglutamine toxicity reduction dose response, whole organism Drosophila SCA1 model (AID 1595)
Settings: at 1 µM, stronger effect = higher value

| SMILES | suppression of toxicity |
| --- | --- |
| OC(c1cc(C(F)(F)F)nc2c(C(F)(F)F)cccc12)C1CCCCN1 (stereo not drawn) | 0 |
| CO/N=C(/C(=O)NC1C(=O)N2C(C(=O)O)=C(COC(N)=O)CSC12)c1ccco1 (stereo not drawn) | 1.43 |
| CC1Cc2ccccc2N1NC(=O)c1ccc(Cl)c(S(N)(=O)=O)c1 (stereo not drawn) | 0 |
| CC(=O)OCC(COC(C)=O)OC(C)=O | 17.1 |
| Cc1ccc(C(C)C)cc2c(C)ccc1-2 | 0 |
| CC(=O)NO | 7.14 |
| Nc1ccc(S(=O)(=O)Nc2ccnn2-c2ccccc2)cc1 | 5.71 |
| NC[C@H]1O[C@H](O[C@H]2[C@H](O)[C@@H](O[C@H]3O[C@H](CO)[C@@H](O)[C@H](N)[C@H]3O)[C@H](N)C[C@@H]2N)[C@H](O)[C@@H](O)[C@@H]1O | 4.29 |
| CCO/C([O-])=N/c1c[n+](N2CCOCC2)no1 | 7.14 |
| NC(Cc1ccc(F)cc1)C(=O)O (stereo not drawn) | 1.43 |
| CN[C@@H]1[C@H](O)[C@H](NC)[C@H]2O[C@@]3(O)C(=O)C[C@@H](C)O[C@H]3OC2[C@H]1O (stereo partly drawn) | 0 |
| C[C@]12C=CC(=O)C=C1CCC1C2C(=O)C[C@@]2(C)C1CC[C@]2(O)C(=O)CO (stereo partly drawn) | 0 |
| Cc1cc(C)nc(NS(=O)(=O)c2ccc(N)cc2)n1 | 5.71 |
| CN(C)CCCN1c2ccccc2Sc2ccc(Cl)cc21 | 1.43 |
| OCCS | 2.86 |
| CN1CCCN=C1COC(=O)C(O)(c1ccccc1)C1CCCCC1 (stereo not drawn) | 0 |
| S=P(N1CC1)(N1CC1)N1CC1 | 0 |
| NC(Cn1ccc(=O)c(O)c1)C(=O)O (stereo not drawn) | 0 |
| CCN(CC)CCNC(=O)c1cc(Cl)c(N)cc1OC | 1.43 |
| CC(=O)N[C@@H]1[C@@H](C(O)[C@H](O)CO)O[C@](O)(C(=O)O)C[C@@H]1O (stereo partly drawn) | 4.29 |

| SMILES | suppression of toxicity |
| --- | --- |
| Cc1cc2cc3c(C)cc(=O)oc3c(C)c2o1 | 0 |
| NC(=O)c1cc[n+](CC2=C(C(=O)O)N3C(=O)C(NC(=O)C(c4ccccc4)S(=O)(=O)[O-])C3SC2)cc1 (stereo not drawn) | 0 |
| Cc1ccc(C(=O)C(C)CN2CCCCC2)cc1 (stereo not drawn) | 1.45 |
| O=C(OCC(O)CO)c1ccccc1Nc1ccnc2cc(Cl)ccc12 (stereo not drawn) | 1.43 |
| C[C@H]1CC2C([C@@H](O)C[C@@]3(C)C2CC[C@]3(O)C(=O)CO)[C@@]2(C)C=CC(=O)C=C12 (stereo partly drawn) | 4.29 |
| CN1C2CCC1CC(OC(c1ccccc1)c1ccccc1)C2 (stereo not drawn) | 1.43 |
| CC1(C)O[C@@H]2CC3C4C[C@H](F)C5=CC(=O)CC[C@]5(C)C4[C@@H](O)C[C@]3(C)[C@]2(C(=O)CO)O1 (stereo partly drawn) | 0 |
| C=Cc1c(C)c2cc3[nH]c(cc4nc(cc5nc(cc1[nH]2)C(C)=C5CCC(=O)O)C(CCC(=O)O)=C4C)c(C)c3C=C | 0 |
| O=C1C[C@@H](c2ccc(O)cc2)Oc2cc(O)cc(O)c21 | 0 |
| CCCCN(CCCC)CCCOC(=O)c1ccc(N)cc1 | 0 |
| O=C(O)c1cccnc1 | 17.1 |
| NC(=NCc1ccccc1)NC(=O)c1nc(Cl)c(N)nc1N | 0 |
| O=C(CCBr)N1CCN(C(=O)CCBr)CC1 | 1.43 |
| O=C(N[C@H](CO)[C@H](O)c1ccc([N+](=O)[O-])cc1)C(Cl)Cl | 1.43 |
| NC(N)=NCCC[C@@H](NC(=O)[C@@H](N)Cc1ccc(O)cc1)C(=O)O | 5.71 |
| CCCC(=O)Nc1ccc(OCC(O)CNC(C)C)c(C(C)=O)c1 (stereo not drawn) | 0 |
| CCN(CC)CCCC(C)Nc1ccnc2cc(Cl)ccc12 (stereo not drawn) | 7.14 |
| NCc1ccc(S(N)(=O)=O)cc1 | 2.86 |
| CC(=O)O[C@]1(C(C)=O)CCC2C3C[C@H](C)C4=CC(=O)CC[C@]4(C)C3CC[C@@]21C (stereo partly drawn) | 5.71 |

Test: PubChem AID 1597
Settings: Drosophila SCA1 polyglutamine model, at 1 µM, stronger effect = higher value

| SMILES | suppression of toxicity |
| --- | --- |
| OC(c1cc(C(F)(F)F)nc2c(C(F)(F)F)cccc12)C1CCCCN1 (stereo not drawn) | 2.15 |
| CO/N=C(/C(=O)NC1C(=O)N2C(C(=O)O)=C(COC(N)=O)CSC12)c1ccco1 (stereo not drawn) | 3.58 |
| CC1Cc2ccccc2N1NC(=O)c1ccc(Cl)c(S(N)(=O)=O)c1 (stereo not drawn) | 0.715 |
| CC(=O)OCC(COC(C)=O)OC(C)=O | 14.3 |
| Cc1ccc(C(C)C)cc2c(C)ccc1-2 | 0 |
| CC(=O)NO | 7.14 |
| Nc1ccc(S(=O)(=O)Nc2ccnn2-c2ccccc2)cc1 | 12.1 |
| NC[C@H]1O[C@H](O[C@H]2[C@H](O)[C@@H](O[C@H]3O[C@H](CO)[C@@H](O)[C@H](N)[C@H]3O)[C@H](N)C[C@@H]2N)[C@H](O)[C@@H](O)[C@@H]1O | 7.14 |
| CCO/C([O-])=N/c1c[n+](N2CCOCC2)no1 | 4.29 |
| NC(Cc1ccc(F)cc1)C(=O)O (stereo not drawn) | 2.86 |
| CN[C@@H]1[C@H](O)[C@H](NC)[C@H]2O[C@@]3(O)C(=O)C[C@@H](C)O[C@H]3OC2[C@H]1O (stereo partly drawn) | 0.725 |
| C[C@]12C=CC(=O)C=C1CCC1C2C(=O)C[C@@]2(C)C1CC[C@]2(O)C(=O)CO (stereo partly drawn) | 2.15 |
| Cc1cc(C)nc(NS(=O)(=O)c2ccc(N)cc2)n1 | 10.7 |
| CN(C)CCCN1c2ccccc2Sc2ccc(Cl)cc21 | 29.3 |
| OCCS | 4.29 |
| CN1CCCN=C1COC(=O)C(O)(c1ccccc1)C1CCCCC1 (stereo not drawn) | 0.715 |
| S=P(N1CC1)(N1CC1)N1CC1 | 4.29 |
| NC(Cn1ccc(=O)c(O)c1)C(=O)O (stereo not drawn) | 0 |
| CCN(CC)CCNC(=O)c1cc(Cl)c(N)cc1OC | 2.15 |
| CC(=O)N[C@@H]1[C@@H](C(O)[C@H](O)CO)O[C@](O)(C(=O)O)C[C@@H]1O (stereo partly drawn) | 5 |

| SMILES | suppression of toxicity |
| --- | --- |
| Cc1cc2cc3c(C)cc(=O)oc3c(C)c2o1 | 12.1 |
| NC(=O)c1cc[n+](CC2=C(C(=O)O)N3C(=O)C(NC(=O)C(c4ccccc4)S(=O)(=O)[O-])C3SC2)cc1 (stereo not drawn) | 0.715 |
| Cc1ccc(C(=O)C(C)CN2CCCCC2)cc1 (stereo not drawn) | 2.88 |
| O=C(OCC(O)CO)c1ccccc1Nc1ccnc2cc(Cl)ccc12 (stereo not drawn) | 4.29 |
| C[C@H]1CC2C([C@@H](O)C[C@@]3(C)C2CC[C@]3(O)C(=O)CO)[C@@]2(C)C=CC(=O)C=C12 (stereo partly drawn) | 5.71 |
| CN1C2CCC1CC(OC(c1ccccc1)c1ccccc1)C2 (stereo not drawn) | 7.14 |
| CC1(C)O[C@@H]2CC3C4C[C@H](F)C5=CC(=O)CC[C@]5(C)C4[C@@H](O)C[C@]3(C)[C@]2(C(=O)CO)O1 (stereo partly drawn) | 3.58 |
| C=Cc1c(C)c2cc3[nH]c(cc4nc(cc5nc(cc1[nH]2)C(C)=C5CCC(=O)O)C(CCC(=O)O)=C4C)c(C)c3C=C | 1.43 |
| O=C1C[C@@H](c2ccc(O)cc2)Oc2cc(O)cc(O)c21 | 5.71 |
| CCCCN(CCCC)CCCOC(=O)c1ccc(N)cc1 | 1.43 |
| O=C(O)c1cccnc1 | 6.42 |
| NC(=NCc1ccccc1)NC(=O)c1nc(Cl)c(N)nc1N | 0 |
| O=C(CCBr)N1CCN(C(=O)CCBr)CC1 | 2.86 |
| O=C(N[C@H](CO)[C@H](O)c1ccc([N+](=O)[O-])cc1)C(Cl)Cl | 2.15 |
| NC(N)=NCCC[C@@H](NC(=O)[C@@H](N)Cc1ccc(O)cc1)C(=O)O | 11.4 |
| CCCC(=O)Nc1ccc(OCC(O)CNC(C)C)c(C(C)=O)c1 (stereo not drawn) | 2.15 |
| CCN(CC)CCCC(C)Nc1ccnc2cc(Cl)ccc12 (stereo not drawn) | 3.58 |
| NCc1ccc(S(N)(=O)=O)cc1 | 5 |
| CC(=O)O[C@]1(C(C)=O)CCC2C3C[C@H](C)C4=CC(=O)CC[C@]4(C)C3CC[C@@]21C (stereo partly drawn) | 11.4 |
